From the supplement of paper PMC12067093, “Discovery and optimisation of a covalent ligand for TRIM25 and its application to targeted protein ubiquitination” (Chemical Science, 2025)
The other results are listed elsewhere or left out.

Amino acid sequences for entries named in this document (tags omitted). A change or cut given only in a name is not applied to a line headed by its entry.
UniProt Q92851: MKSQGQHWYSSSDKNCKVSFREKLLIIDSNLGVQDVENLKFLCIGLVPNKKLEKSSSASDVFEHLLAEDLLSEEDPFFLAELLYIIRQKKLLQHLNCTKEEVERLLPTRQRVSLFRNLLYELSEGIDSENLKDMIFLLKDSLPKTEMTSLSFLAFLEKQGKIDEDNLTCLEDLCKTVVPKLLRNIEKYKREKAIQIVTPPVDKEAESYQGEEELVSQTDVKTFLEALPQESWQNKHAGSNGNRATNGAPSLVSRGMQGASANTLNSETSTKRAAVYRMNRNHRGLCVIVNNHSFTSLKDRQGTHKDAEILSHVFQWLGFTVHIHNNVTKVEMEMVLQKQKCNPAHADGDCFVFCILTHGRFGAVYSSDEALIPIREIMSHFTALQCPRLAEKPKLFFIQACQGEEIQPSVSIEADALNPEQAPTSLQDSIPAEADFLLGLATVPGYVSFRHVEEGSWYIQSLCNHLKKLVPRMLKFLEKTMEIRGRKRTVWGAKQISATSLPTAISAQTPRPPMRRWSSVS
UniProt P42574: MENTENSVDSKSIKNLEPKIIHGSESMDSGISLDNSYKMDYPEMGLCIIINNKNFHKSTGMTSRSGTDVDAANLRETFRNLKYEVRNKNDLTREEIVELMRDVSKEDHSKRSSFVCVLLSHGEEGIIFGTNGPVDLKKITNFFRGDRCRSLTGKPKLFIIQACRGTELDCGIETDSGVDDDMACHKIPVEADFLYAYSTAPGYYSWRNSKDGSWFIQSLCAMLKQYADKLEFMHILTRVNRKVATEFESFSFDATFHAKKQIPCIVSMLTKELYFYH
UniProt Q96LW7: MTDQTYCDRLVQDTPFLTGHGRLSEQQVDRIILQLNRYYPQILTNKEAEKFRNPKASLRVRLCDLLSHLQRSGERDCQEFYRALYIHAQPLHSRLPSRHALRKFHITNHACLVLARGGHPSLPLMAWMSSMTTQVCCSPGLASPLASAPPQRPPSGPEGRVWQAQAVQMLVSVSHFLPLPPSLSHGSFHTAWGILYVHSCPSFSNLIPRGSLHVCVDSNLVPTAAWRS
UniProt P49589: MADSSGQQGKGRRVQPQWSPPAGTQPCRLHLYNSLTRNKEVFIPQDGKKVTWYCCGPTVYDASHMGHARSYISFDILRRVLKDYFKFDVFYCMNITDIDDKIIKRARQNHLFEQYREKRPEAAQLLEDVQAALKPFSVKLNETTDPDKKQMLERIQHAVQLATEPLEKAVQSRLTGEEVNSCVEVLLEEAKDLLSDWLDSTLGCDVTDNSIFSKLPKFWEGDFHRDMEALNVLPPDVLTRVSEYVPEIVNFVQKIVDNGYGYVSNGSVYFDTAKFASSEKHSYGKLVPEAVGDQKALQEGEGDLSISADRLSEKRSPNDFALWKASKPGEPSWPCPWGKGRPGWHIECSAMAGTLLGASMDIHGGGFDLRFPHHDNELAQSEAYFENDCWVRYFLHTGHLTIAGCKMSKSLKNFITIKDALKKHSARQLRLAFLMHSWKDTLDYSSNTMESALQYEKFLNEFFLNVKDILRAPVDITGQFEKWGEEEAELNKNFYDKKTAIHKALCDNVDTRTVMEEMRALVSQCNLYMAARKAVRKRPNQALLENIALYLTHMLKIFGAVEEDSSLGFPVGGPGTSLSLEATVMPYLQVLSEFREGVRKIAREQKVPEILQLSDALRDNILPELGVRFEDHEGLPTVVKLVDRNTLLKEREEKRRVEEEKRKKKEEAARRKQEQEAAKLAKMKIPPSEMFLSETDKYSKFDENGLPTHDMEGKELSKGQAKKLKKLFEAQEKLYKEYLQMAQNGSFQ
UniProt O75828: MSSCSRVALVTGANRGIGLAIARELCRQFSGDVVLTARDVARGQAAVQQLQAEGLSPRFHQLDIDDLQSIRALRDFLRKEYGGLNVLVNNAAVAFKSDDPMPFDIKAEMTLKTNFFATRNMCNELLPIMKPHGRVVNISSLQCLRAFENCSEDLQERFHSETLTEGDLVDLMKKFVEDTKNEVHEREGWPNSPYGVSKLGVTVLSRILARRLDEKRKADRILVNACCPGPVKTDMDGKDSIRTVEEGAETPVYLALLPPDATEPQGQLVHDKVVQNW
UniProt Q14790: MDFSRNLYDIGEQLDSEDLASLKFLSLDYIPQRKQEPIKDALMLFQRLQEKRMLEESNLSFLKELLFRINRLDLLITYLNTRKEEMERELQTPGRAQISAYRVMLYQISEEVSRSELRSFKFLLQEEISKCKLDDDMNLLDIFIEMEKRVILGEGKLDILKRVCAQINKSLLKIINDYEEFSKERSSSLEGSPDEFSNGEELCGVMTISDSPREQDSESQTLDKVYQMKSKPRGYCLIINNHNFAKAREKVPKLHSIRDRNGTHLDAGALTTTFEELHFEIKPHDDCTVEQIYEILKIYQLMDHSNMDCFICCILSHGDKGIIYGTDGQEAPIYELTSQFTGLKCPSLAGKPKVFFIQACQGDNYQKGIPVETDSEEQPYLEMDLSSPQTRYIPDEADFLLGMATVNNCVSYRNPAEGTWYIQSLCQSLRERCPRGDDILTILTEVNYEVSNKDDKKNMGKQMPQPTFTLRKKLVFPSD
UniProt Q14781, whole entry: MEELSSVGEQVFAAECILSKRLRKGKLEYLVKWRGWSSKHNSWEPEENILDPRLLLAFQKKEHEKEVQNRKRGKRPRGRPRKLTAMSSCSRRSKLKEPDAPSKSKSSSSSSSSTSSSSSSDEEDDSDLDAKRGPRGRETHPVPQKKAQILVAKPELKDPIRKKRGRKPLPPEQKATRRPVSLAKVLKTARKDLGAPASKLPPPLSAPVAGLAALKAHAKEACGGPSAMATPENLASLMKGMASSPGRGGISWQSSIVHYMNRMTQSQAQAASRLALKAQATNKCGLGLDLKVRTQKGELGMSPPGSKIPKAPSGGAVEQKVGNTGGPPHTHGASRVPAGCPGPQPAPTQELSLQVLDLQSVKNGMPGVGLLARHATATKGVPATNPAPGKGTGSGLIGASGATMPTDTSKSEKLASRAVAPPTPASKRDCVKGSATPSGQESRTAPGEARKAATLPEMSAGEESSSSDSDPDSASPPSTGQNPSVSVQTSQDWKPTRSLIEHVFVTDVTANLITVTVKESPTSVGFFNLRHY
UniProt P47756, whole entry, looked up: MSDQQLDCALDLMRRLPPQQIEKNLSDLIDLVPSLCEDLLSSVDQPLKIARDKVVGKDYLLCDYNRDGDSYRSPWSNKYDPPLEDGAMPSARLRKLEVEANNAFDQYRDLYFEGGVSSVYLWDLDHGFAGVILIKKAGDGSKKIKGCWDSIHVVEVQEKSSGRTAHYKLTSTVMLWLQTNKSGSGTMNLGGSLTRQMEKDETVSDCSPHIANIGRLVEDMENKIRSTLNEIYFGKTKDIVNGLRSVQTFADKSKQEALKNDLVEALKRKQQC
UniProt P16152: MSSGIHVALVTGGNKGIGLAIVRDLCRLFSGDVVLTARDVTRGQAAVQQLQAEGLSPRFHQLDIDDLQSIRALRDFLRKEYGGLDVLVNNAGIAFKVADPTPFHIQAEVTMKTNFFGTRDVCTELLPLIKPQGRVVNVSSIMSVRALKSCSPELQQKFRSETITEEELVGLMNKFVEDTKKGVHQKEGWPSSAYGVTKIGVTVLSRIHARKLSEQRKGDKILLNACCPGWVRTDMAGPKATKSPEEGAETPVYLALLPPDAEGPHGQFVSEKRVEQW
UniProt P04632: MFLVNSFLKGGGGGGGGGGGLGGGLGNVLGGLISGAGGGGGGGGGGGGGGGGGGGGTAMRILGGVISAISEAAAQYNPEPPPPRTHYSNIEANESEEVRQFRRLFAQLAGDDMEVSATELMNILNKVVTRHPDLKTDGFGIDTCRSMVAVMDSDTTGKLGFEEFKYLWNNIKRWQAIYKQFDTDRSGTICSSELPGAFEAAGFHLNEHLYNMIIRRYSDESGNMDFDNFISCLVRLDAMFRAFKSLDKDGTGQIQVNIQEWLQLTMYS
UniProt Q8N163, whole entry, looked up: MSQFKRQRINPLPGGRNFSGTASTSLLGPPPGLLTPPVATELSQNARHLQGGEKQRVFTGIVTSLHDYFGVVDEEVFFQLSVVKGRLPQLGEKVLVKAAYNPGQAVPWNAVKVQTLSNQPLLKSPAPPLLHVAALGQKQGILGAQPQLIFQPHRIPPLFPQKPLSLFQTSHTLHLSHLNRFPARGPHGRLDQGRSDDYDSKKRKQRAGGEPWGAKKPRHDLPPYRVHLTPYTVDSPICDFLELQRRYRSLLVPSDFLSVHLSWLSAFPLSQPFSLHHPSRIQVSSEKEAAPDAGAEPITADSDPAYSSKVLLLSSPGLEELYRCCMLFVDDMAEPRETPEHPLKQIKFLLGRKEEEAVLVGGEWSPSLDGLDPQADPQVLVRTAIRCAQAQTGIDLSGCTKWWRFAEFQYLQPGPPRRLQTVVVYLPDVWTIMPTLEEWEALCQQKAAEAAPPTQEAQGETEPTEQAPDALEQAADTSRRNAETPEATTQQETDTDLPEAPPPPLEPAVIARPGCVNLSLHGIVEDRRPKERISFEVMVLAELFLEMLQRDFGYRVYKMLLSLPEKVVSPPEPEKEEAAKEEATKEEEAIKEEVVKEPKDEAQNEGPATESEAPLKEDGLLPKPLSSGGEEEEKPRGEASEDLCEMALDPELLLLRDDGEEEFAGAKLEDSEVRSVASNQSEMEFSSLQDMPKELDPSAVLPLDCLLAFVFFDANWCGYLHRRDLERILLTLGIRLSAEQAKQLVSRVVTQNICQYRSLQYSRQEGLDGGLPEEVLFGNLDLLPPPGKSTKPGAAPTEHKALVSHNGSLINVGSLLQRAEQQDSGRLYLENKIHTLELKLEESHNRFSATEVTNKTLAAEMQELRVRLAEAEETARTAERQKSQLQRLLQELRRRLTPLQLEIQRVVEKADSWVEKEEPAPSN
UniProt Q9ULG6: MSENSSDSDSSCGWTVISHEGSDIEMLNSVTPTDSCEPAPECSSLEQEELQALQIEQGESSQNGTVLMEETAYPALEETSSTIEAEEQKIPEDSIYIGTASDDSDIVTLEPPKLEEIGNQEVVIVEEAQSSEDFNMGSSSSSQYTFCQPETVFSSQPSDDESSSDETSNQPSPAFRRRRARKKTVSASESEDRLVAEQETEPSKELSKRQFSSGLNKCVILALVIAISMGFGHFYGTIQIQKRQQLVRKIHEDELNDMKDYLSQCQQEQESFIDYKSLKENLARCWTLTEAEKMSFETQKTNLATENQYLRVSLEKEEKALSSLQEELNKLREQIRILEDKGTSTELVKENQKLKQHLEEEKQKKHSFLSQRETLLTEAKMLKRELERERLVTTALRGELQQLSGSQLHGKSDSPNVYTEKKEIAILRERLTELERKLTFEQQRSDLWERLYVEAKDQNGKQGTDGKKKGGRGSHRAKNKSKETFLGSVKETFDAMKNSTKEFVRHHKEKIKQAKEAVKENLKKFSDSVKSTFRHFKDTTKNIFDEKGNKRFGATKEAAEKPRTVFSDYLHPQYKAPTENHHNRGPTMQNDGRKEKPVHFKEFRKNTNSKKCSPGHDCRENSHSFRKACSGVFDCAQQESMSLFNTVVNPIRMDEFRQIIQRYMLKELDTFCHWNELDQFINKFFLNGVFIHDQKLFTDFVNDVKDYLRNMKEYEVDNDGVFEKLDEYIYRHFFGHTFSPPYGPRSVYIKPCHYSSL
UniProt Q5T0F9: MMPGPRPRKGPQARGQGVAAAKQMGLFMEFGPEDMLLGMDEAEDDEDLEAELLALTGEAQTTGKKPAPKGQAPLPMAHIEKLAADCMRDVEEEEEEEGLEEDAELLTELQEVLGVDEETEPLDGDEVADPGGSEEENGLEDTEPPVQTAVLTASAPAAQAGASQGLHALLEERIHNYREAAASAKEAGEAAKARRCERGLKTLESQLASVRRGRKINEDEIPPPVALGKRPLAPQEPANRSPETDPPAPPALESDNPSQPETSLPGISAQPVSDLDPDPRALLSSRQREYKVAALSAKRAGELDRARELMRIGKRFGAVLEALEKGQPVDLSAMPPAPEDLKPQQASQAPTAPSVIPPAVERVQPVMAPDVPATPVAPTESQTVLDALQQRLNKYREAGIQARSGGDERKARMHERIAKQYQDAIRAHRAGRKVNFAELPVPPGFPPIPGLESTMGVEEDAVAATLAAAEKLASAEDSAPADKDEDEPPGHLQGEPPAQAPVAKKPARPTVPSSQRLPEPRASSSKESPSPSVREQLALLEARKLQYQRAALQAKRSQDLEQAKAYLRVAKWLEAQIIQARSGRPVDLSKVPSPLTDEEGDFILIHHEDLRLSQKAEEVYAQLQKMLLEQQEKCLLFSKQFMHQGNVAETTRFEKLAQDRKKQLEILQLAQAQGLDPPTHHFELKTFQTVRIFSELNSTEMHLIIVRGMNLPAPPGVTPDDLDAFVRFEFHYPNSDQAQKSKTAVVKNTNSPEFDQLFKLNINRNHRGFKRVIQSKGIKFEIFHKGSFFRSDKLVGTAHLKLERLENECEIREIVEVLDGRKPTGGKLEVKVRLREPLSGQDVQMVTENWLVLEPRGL
UniProt Q96NT0: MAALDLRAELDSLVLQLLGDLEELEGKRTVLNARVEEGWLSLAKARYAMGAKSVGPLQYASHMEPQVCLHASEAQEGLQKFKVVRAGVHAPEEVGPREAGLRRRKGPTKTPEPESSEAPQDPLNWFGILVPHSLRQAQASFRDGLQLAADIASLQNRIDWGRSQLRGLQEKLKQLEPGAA

Compound: CC1Cc2ccccc2N1C(=O)C1CCCN(C1)C(=O)CCl (mixture of isomers) [TRIM25 ligand 11 (diastereomer mixture)]
Assay: probe-labelled cysteine peptide fold change vs DMSO (competition) (log2 fold change); higher = less target engagement (more negative = stronger competition)
Conditions: THP-1, incubation time: 4 h
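Further: competitive chemoproteomic profiling in live THP-1 cells with an iodoacetamide desthiobiotin (IA-DTB) probe, comparing probe-labelled peptide intensities in compound-treated cells against DMSO-treated controls.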

Row | Target | probe-labelled cysteine peptide fold change (10 µM) | probe-labelled cysteine peptide fold change (50 µM)
1 | CASP10_Q92851_386_EIMSHFTALQCPR (UniProt Q92851) | 0.152 | 0.172
2 | CASP3_P42574_264_KQIPCIVSMLTK (UniProt P42574) | -0.0541 | -0.098
3 | CARD19_Q96LW7_63_LCDLLSHLQR (UniProt Q96LW7) | -0.191 | -0.00311
4 | CARS_P49589-3_81_HIEALLGSPCGK (UniProt P49589) | -0.0595 | -0.0785
5 | CASP2_P42575_320_MFFIQACR (UniProt P42575) | -0.0831 | 0.0136
6 | CBR3_O75828_227_ILVNACCPGPVK (UniProt O75828) | 0.0945 | -0.0291
7 | CC2D1A_Q6P1N0_590_QQHEMCLNHSNQFTQLGNITETTK (UniProt Q6P1N0) | -0.0329 | -0.0806
8 | CARS_P49589_335_ASKPGEPSWPCPWGK (UniProt P49589) | -0.0405 | -0.0636
9 | CASP8_Q14790_309+312+313_IYQLMDHSNMDCFICCILSHGDK (UniProt Q14790) | 0.153 | 0.113
10 | CBX2_Q14781_89_KLTAMSSCSR (UniProt Q14781) | -0.13 | -0.306
11 | CASP6_P55212_113+116_IHEVSTVSHADADCFVCVFLSHGEGNHIYAYDAK (UniProt P55212) | 0.259 | 0.113
12 | CAPZB_P47756_8_SDQQLDCALDLMR (UniProt P47756) | -0.338 | 0.114
13 | CAST_P20810_328_CGEDDETIPSEYR (UniProt P20810) | -0.166 | -0.0812
14 | CBR1_P16152_122_DVCTELLPLIK (UniProt P16152) | 0.158 | 0.184
15 | CANX_P27824_160_PFLFDTKPLIVQYEVNFQNGIECGGAYVK (UniProt P27824) | 0.154 | -0.281
16 | CAPZB_P47756_147_GCWDSIHVVEVQEK (UniProt P47756) | 0.0922 | -0.0259
17 | CCNK_O75909_23_ENSSPSVTSANLDHTKPCWYWDK (UniProt O75909) | -0.222 | -0.323
18 | CAPZB_P47756_206_DETVSDCSPHIANIGR (UniProt P47756) | 0.0274 | -0.045
19 | CAPNS1_P04632_232_RYSDESGNMDFDNFISCLVR (UniProt P04632) | 0.0771 | 0.109
20 | CCP110_O43303_174_QCDSSNISHVENEAFPK (UniProt O43303) | -0.106 | -0.109
21 | CASP1_P29466_169_LALIICNEEFDSIPR (UniProt P29466) | 0.089 | -0.0438
22 | CCAR2_Q8N163_644_GEASEDLCEMALDPELLLLR (UniProt Q8N163) | 0.0494 | -0.135
23 | CAST_P20810_661_KPADDQDPIDALSGDLDSCPSTTETSQNTAK (UniProt P20810) | -0.148 | -0.245
24 | CARS_P49589_405_YFLHTGHLTIAGCK (UniProt P49589) | 0.0834 | 0.0173
25 | CCPG1_Q9ULG6_672_ELDTFCHWNELDQFINK (UniProt Q9ULG6) | 0.165 | 0.272
26 | CARD19_Q96LW7_77_DCQEFYR (UniProt Q96LW7) | -0.0317 | 0.116
27 | CC2D1B_Q5T0F9_809_LENECEIREIVEVLDGR (UniProt Q5T0F9) | -0.0987 | 0.0697
28 | CCDC115_Q96NT0_68_SVGPLQYASHMEPQVCLHASEAQEGLQK (UniProt Q96NT0) | 0.125 | -0.015
29 | CASP3_P42574_47_MDYPEMGLCIIINNK (UniProt P42574) | -0.153 | -0.158
30 | CAP1_Q01518_375_GKINSITVDNCK (UniProt Q01518) | 0.000915 | 0.111

Reformatted as tab-separated lines: entries from further up
Row	Target	probe-labelled cysteine peptide fold change (10 µM)	probe-labelled cysteine peptide fold change (50 µM)
1	CASP10_Q92851_386_EIMSHFTALQCPR (UniProt Q92851)	0.152	0.172
27	CC2D1B_Q5T0F9_809_LENECEIREIVEVLDGR (UniProt Q5T0F9)	-0.0987	0.0697
